The results in this text go back to paper PMC6083090, “CNBP Homologues Gis2 and Znf9 Interact with a Putative G-Quadruplex-Forming 3′ Untranslated Region, Altering Polysome Association and Stress Tolerance in Cryptococcus neoformans”.

The exact form of at least one protein or probe is not confirmed. Results from cells or extracts need not show a direct contact. For part of these data: At least one verdict was read from the data and is not stated in words by the source. Where a protein sequence is shown, tags need not be part of it.

The target in series [1] is T1, Znf9 (native, cell extract) (Cryptococcus neoformans (H99)) (UniProt J9VQH8).
T1 sequence (looked up, limits assumed): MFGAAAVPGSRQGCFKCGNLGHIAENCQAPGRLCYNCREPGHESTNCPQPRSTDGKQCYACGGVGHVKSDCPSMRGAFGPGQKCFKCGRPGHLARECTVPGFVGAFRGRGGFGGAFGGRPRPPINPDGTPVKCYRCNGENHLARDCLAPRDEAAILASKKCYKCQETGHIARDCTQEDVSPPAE
Briefly: UV-cross-linked EMSA. The note with it: gis2Δ extract, band lost in gis2Δ znf9Δ; EMSA: 15 mM HEPES pH 7.4, 40 mM KCl, 5 mM MgCl2, 5% glycerol, 0.5 pmol probe in 20 µl, room temperature 20 min, then UV cross-link on ice 10 min; protein in an extract; label: 5'-TYE705. In general terms: In EMSA bound probe runs differently from free probe, usually more slowly.

The target of series [2] is T2, Gis2 (native, cell extract) (Cryptococcus neoformans (H99)) (UniProt J9VQ17).
T2 sequence (looked up, limits assumed): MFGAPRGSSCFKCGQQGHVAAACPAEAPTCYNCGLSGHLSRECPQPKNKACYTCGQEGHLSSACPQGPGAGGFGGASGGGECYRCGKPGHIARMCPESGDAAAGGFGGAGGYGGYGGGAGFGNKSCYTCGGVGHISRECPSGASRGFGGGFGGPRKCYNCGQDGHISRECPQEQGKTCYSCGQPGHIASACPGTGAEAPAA
The series can be described thus: UV-cross-linked EMSA. The settings on record: znf9Δ extract, band lost in gis2Δ znf9Δ; EMSA: 15 mM HEPES pH 7.4, 40 mM KCl, 5 mM MgCl2, 5% glycerol, 0.5 pmol probe in 20 µl, room temperature 20 min, then UV cross-link on ice 10 min; protein in an extract; label: 5'-TYE705.

In series [3] the target is T1, Znf9 (native, cell extract) (Cryptococcus neoformans (H99)). Briefly: pull-down, LC-MS/MS. The note with it: H99 lysate, 3 mM MgCl2, heparin, tRNA; protein in an extract; label: 5'-biotin.

In the case of “UGCAGUGGAGUUGGAGUGGGGAUGGGAUGUUGGGCAGUGGGCCCGUGGAU [TYE705-RPL2-3'UTR]”, the binding result in series [1] and in series [2] was “binds” each time. As for “UGCAGUGGAGUUGGAGUGGGGAUGGGAUGUUGGGCAGUGGGCCCGUGGAU [Biotin-RPL2-3'UTR]”, in series [3], the binding result is on record as “binds”.
